Test results as given in paper PMC13184988 (ACS Chemical Biology, 2026).

Assay: general procedure: Fmoc solid-phase peptide synthesis; Fmoc-amino acid preloaded Wang (4-alkoxybenzyl alcohol) resins, 100-200 mesh; HBTU
Details: whole synthesis, A280nm

Substance	final HPLC purity [%]
[D-Trp3]endomorphin-1 (EM-1)	98.68
[L-Trp3]endomorphin-1 (EM-1)	98.26
